Publication doi:10.1101/2024.02.19.580884 (bioRxiv, 2024)

Biological target: T1, GST-tagged RfaA (Bacillus subtilis 168) (UniProt P54519)
T1 sequence: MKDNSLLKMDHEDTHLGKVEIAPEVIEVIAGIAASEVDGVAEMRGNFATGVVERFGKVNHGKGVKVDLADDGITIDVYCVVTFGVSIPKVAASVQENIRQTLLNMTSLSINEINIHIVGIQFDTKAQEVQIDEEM
Assay: pull-down

- binding: no binding (tested: 0.1 mg)
Substance: 6xHis-CcpC

These are yes or no findings as the source states them, for the method shown. Sequences can lack the tags named with a protein.
